Assay results as given in patent publication US20230383291A1, “PEPTIDE-BASED TRANSDUCTION OF NON-ANIONIC POLYNUCLEOTIDE ANALOGS FOR GENE EXPRESSION MODULATION” (FELDAN BIO INC., priority 2020, published 2023).
Some entries share one result that the patent states for a list of compounds.

Test system: HeLa cells
Assay: Propidium iodide (PI) transduction screening in HeLa cells
Assay type: cell-based, Human
Details: 10 μM shuttle agent, PI 10 μg/mL, one minute
Procedure: HeLa cells were plated (20 000 cells/well) in a 96 well-dish the day prior to the experiment. Each delivery mix comprising a synthetic peptide shuttle agent (10 μM) and the propidium iodide (PI) (10 μg/mL) or the GFP-NLS (10 μM) were prepared and completed to 50 μL with phosphate-buffered saline (PBS) for PI or with RPMI-1640 medium for GFP-NLS. Cells were washed once and the shuttle agent/PI or shuttle agent/GFP-NLS added on cells for one minute (PI) or 5 minutes (GFP-NLS). Then 100 μL DMEM containing 10% FBS was added to the mix and removed. Cells were washed once with PBS and incubated in DMEM containing 10% FBS. Cells were analyzed after 2-hour incubation by flow cytometry. Cells were analyzed one hour after PI or GFP-NLS treatment.
A proprietary library of over 300 candidate peptide shuttle agents was screened in parallel for both propidium iodide (PI; a small molecule cargo) and GFP-NLS transduction activity in HeLa cells using flow cytometry as generally described in Example 1.
Due to the large number of peptides screened, negative controls were performed in parallel for each experimental batch and included a “no treatment” (NT) control in which the cells were not exposed to shuttle peptide or cargo, as well as a “cargo alone” control in which cells were exposed to the cargo in the absence of shuttle agent. Results are shown in FIG. 5, in which “transduction efficiency” refers to the percentage of all viable cells that are positive for the cargo (PI or GFP-NLS). “Mean Delivery score” provides a further indication of the total amount of cargo that was delivered per cell, amongst all cargo-positive cells. Mean PI or GFP-NLS delivery score was calculated by multiplying the mean fluorescence intensity (of at least duplicate samples) measured for the viable PI+ or GFP+ cells by the mean percentage of viable PI+ or GFP+ cells, divided by 100,000 for GFP delivery or by 10,000 for PI delivery. The Mean Delivery Scores for PI and GFP-NLS for each candidate shuttle agent was then normalized by dividing by the Mean Delivery Score for the “cargo alone” negative control performed in parallel for each experimental batch. Thus, the “Norm. Mean Delivery Score” in FIG. 5 represents the fold-increase in Mean Delivery Score over the “cargo alone” negative control.

## FSD435: corresponds to FSD395 except for lysine residues (K) being replaced with L-2,4-diaminobutyric acid residues
  mean PI transduction efficiency: at least 20%

## FSD390: candidate peptide shuttle agent, 17 aa (KWKLWSKLLKLWSKLWK; FSD390)
  mean PI transduction efficiency: at least 20%

## FSD366: candidate peptide shuttle agent, 18 aa (KWKLWSRLLKLWGGGQAR; FSD366)
  mean PI transduction efficiency: at least 20%

## FSD367: candidate peptide shuttle agent, 19 aa (KWKLLKLWSRLLKGGGQAR; FSD367)
  mean PI transduction efficiency: at least 20%

## FSD171: corresponds to FSD168 except having an N-terminal acetyl group and a C-terminal cysteamide group (LLKIWSRLIKIWTQGRRLGARAQAR; N-terminal acetyl, C-terminal cysteamide; FSD171; (1)..(1) Acetyl; (25)..(25) Amide; (25)..(25) Cysteamide)
  mean PI transduction efficiency: at least 20%

## FSD436: corresponds to FSD222 except for phenylalanine residues (F) being replaced with (2-naphthyl)-L-alanine residues
  mean PI transduction efficiency: at least 20%

## FSD438: corresponds to FSD10 except for an N-terminal octanoic acid modification (KWKLARAFARAIKKLGGSGGGSYARALRRQARTG; N-terminal octanoic acid; FSD438; (1)..(1) N-ter octanoic acid)
  mean PI transduction efficiency: at least 20%
